Measurements as given in PubChem BioAssay AID1487 (National Center for Advancing Translational Sciences (NCATS), 2009).
The other results are listed elsewhere or left out. Shown are side measurements of this screen, not its main read-out; they come without a call. Compounds called inactive in the main read-out are mostly missing here. The note in brackets gives the kind of curve behind each potency; many fits are weak.

Experiment: qHTS Assay for Modulators of Lamin A Splicing
Details: HeLa LMNA splicing GFP/RFP minigene ratio, 48 h
Method in brief: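 Read-out is the ratio of GFP to DsRed2 object intensity, acquired by 488 nm laser-scanning cytometry on HeLa lamin A-EGFP minigene reporter cells. Compound incubation 48 hrs at 37 °C in Opti-MEM with 2% FBS; DMSO 0.5% final.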

[1] = measured here: RFP viability control channel
[2] = measured here: GFP splicing reporter channel

SMILES	AC50 [1]	AC50 [2]
COc1ccc(/C=N/NC(=O)c2cccc([N+](=O)[O-])c2)cc1OC(=O)c1ccccc1	35.5 µM [rising, single point]	–
COc1ccc(C)cc1-n1nnnc1SCc1nc2ccccc2s1	20 µM [rising, single point]	28.2 µM [rising, single point]
CC1=NN(c2cccc(Cl)c2)C(=O)C12CC(C)=C(C)CS2 (stereo not given)	14.1 µM [rising, single point]	–
Fc1ccc(Br)cc1C1C=C(c2ccc(Br)s2)Nc2ncnn21 (stereo not given)	22.4 µM [rising, partial curve]	–
Cc1cccc(NC(=O)CC23CC4CC(C2)CC(n2nnc(C)n2)(C4)C3)c1	14.1 µM [rising, single point]	–
CCN(CC)C(=O)Cn1c(=O)n(-c2ccc(Cl)c(Cl)c2)c(=O)c2c(C)c(C(=O)N(CC)CC)sc21	–	0.447 µM [falling, full curve]
CS(=O)(=O)N1CCc2cc(S(=O)(=O)Nc3ccc4c(c3)OCCO4)ccc21	7.08 µM [rising, partial curve]	–
COc1cc(S(=O)(=O)NC2CCCC2)ccc1F	–	35.5 µM [falling, single point]
CN(C(=S)Nc1ccc(SC(F)F)cc1)c1ccc(O)cc1	25.1 µM [rising, partial curve]	20 µM [rising, single point]
Cn1nnnc1SCCCNCc1ccc(Cl)cc1	–	3.16 µM [rising, partial curve]
CC(C)C(=O)N1CCN(c2ccccc2NC(=S)NC(=O)c2cccs2)CC1	–	2.82 µM [rising, full curve]
O=C(NCc1ccc2c(c1)OCO2)c1ccc2c(c1)N(Cc1c(F)cccc1Cl)C(=O)CS2	22.4 µM [rising, single point]	–
N#CCCN(Cc1cccnc1)C(=O)c1sc2cc(F)ccc2c1Cl	12.6 µM [rising, partial curve]	7.08 µM [rising, partial curve]
Cc1cc(-c2ccccc2)n(-c2cc(N/N=C/c3ccccc3O)ncn2)n1	0.708 µM [rising, full curve]	–
O=C(Nc1cccc(Cl)c1)N1CCN(C/C=C/c2ccccc2)CC1	12.6 µM [rising, single point]	–
Cc1noc(C)c1COC(=O)c1cc(C)n(-c2ccccc2)c1C	10 µM [rising, partial curve]	–
CC1CCN(CC(=O)Nc2ccccc2Sc2ccccc2)CC1	–	35.5 µM [rising, single point]

Three compounds out of the list, ordered by molar mass, rising.
SMILES	AC50 [1]	AC50 [2]
COc1cc(S(=O)(=O)NC2CCCC2)ccc1F	–	35.5 µM [falling, single point]
CC1=NN(c2cccc(Cl)c2)C(=O)C12CC(C)=C(C)CS2 (stereo not given)	14.1 µM [rising, single point]	–
O=C(Nc1cccc(Cl)c1)N1CCN(C/C=C/c2ccccc2)CC1	12.6 µM [rising, single point]	–
